Test results reported in the supplement of paper PMC12067093, “Discovery and optimisation of a covalent ligand for TRIM25 and its application to targeted protein ubiquitination” (Chemical Science, 2025).
The other results are listed elsewhere or left out.

The chains behind the UniProt entries cited, without tags or fusion partners. Where a name states a change or a piece, a line headed by the entry shows the natural chain unless it says otherwise.
UniProt Q9BW92: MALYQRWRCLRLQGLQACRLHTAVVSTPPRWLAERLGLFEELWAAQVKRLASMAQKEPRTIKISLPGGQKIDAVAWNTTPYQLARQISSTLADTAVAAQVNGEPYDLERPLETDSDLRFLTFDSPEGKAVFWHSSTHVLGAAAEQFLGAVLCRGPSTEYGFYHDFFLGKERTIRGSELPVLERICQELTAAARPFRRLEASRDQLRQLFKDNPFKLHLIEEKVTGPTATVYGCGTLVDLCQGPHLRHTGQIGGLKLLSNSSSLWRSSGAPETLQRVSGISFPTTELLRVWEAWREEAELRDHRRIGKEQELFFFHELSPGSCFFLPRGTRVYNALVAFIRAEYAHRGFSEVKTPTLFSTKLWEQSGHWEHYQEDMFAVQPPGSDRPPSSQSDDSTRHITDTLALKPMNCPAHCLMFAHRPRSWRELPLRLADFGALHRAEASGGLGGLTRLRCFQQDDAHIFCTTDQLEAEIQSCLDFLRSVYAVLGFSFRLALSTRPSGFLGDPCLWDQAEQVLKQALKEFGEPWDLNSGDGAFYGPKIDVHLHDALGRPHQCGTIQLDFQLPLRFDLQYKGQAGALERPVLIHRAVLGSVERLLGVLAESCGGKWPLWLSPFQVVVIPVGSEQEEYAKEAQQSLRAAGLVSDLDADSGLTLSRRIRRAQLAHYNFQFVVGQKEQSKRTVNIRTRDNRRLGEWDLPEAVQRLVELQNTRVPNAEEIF
UniProt P26639: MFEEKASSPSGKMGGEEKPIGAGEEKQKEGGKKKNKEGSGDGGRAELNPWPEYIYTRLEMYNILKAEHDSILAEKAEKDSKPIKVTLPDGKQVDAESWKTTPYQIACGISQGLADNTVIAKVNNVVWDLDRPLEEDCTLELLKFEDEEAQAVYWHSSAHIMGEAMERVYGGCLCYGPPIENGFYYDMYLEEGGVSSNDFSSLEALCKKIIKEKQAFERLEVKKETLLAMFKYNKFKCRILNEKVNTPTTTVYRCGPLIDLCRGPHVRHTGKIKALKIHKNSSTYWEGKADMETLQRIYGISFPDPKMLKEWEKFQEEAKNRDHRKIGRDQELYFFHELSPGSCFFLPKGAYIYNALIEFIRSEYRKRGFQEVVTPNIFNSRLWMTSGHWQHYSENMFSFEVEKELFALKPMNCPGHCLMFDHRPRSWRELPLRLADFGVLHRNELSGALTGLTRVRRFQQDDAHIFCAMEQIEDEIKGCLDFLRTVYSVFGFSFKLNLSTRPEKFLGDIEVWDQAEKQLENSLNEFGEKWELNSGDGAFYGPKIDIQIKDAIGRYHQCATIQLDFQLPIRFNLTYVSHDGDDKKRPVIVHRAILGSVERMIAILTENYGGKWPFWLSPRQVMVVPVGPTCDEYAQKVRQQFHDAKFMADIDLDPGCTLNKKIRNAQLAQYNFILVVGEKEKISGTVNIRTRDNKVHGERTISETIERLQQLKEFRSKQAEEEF
UniProt Q969Z0: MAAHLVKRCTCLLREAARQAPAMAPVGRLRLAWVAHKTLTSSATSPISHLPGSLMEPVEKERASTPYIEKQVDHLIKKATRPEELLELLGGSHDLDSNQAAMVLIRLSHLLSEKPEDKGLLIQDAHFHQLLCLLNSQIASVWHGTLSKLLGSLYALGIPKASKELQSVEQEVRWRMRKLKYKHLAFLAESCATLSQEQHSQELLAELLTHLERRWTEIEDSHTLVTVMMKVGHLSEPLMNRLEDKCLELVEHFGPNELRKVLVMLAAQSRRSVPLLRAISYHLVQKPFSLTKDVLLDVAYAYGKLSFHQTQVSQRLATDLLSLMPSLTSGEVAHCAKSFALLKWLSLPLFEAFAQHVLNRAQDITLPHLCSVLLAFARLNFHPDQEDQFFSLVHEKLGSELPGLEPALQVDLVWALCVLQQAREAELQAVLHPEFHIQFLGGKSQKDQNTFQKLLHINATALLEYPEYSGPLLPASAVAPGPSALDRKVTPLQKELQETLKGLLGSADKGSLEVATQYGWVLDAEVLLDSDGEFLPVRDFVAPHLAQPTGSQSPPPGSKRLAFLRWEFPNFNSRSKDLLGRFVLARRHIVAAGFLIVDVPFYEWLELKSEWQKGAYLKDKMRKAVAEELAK
UniProt Q6P1X5, whole entry, looked up: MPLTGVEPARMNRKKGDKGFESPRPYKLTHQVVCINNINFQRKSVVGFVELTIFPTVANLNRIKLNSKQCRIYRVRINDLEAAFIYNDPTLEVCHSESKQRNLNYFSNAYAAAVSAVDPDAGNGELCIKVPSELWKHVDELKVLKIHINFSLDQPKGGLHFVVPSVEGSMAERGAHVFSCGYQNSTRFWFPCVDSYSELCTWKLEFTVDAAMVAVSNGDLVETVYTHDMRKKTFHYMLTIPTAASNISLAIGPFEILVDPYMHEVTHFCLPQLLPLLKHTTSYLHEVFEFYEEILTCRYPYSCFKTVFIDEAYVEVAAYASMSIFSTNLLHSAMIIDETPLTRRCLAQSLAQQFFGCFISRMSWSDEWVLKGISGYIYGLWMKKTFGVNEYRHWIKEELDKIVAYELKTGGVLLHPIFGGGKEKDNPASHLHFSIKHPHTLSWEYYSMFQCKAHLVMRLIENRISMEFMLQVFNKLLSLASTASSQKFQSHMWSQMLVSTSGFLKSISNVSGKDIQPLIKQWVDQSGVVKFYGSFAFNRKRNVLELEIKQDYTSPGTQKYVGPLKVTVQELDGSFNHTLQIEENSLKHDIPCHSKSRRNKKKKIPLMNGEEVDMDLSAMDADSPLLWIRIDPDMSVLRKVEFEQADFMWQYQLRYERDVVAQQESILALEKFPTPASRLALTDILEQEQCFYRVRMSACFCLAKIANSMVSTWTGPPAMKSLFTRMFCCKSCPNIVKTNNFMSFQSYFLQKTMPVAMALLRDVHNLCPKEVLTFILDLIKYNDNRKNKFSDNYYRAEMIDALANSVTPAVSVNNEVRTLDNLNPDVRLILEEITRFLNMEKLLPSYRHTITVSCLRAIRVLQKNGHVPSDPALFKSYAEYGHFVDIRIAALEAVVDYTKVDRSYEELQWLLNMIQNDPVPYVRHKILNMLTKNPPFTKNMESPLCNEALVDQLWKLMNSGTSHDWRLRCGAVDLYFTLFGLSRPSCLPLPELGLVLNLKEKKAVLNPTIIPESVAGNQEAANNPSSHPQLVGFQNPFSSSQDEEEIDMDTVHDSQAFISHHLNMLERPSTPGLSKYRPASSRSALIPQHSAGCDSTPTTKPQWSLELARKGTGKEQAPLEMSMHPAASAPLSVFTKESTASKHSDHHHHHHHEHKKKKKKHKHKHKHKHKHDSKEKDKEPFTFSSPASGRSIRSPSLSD
UniProt Q9BX59, whole entry, looked up: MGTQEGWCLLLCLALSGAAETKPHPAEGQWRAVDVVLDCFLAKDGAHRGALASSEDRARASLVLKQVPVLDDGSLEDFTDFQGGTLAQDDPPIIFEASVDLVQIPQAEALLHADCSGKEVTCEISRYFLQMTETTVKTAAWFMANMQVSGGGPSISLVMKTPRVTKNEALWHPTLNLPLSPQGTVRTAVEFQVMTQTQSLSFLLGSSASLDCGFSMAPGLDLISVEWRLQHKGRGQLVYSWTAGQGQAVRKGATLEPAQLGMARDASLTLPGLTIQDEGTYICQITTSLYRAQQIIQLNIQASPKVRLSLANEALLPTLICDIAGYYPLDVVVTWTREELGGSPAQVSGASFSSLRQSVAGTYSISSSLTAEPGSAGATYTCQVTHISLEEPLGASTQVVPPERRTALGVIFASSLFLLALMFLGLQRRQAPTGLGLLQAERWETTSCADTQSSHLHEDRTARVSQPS
UniProt Q9H2K8: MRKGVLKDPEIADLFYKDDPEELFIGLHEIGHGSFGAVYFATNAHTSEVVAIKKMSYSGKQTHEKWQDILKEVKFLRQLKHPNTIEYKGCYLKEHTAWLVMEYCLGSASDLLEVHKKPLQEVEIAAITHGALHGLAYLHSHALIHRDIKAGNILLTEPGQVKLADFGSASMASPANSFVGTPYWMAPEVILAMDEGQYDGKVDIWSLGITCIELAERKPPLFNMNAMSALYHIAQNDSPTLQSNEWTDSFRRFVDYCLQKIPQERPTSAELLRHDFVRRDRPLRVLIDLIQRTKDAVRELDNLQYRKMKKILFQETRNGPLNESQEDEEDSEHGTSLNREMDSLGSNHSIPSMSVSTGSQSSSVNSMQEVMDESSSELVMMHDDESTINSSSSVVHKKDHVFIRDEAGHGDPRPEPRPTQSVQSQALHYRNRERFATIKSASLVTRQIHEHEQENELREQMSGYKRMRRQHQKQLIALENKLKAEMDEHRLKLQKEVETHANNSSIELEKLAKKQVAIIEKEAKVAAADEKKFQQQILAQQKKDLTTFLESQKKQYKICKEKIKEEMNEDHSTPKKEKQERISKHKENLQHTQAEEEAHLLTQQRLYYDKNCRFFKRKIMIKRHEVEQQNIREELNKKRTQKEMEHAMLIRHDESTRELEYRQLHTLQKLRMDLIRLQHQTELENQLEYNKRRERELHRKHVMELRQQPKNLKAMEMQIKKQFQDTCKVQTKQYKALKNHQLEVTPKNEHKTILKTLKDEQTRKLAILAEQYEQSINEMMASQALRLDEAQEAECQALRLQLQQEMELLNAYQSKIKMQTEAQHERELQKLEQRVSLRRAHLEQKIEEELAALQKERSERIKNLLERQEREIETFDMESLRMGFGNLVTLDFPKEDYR
UniProt Q9C0D5: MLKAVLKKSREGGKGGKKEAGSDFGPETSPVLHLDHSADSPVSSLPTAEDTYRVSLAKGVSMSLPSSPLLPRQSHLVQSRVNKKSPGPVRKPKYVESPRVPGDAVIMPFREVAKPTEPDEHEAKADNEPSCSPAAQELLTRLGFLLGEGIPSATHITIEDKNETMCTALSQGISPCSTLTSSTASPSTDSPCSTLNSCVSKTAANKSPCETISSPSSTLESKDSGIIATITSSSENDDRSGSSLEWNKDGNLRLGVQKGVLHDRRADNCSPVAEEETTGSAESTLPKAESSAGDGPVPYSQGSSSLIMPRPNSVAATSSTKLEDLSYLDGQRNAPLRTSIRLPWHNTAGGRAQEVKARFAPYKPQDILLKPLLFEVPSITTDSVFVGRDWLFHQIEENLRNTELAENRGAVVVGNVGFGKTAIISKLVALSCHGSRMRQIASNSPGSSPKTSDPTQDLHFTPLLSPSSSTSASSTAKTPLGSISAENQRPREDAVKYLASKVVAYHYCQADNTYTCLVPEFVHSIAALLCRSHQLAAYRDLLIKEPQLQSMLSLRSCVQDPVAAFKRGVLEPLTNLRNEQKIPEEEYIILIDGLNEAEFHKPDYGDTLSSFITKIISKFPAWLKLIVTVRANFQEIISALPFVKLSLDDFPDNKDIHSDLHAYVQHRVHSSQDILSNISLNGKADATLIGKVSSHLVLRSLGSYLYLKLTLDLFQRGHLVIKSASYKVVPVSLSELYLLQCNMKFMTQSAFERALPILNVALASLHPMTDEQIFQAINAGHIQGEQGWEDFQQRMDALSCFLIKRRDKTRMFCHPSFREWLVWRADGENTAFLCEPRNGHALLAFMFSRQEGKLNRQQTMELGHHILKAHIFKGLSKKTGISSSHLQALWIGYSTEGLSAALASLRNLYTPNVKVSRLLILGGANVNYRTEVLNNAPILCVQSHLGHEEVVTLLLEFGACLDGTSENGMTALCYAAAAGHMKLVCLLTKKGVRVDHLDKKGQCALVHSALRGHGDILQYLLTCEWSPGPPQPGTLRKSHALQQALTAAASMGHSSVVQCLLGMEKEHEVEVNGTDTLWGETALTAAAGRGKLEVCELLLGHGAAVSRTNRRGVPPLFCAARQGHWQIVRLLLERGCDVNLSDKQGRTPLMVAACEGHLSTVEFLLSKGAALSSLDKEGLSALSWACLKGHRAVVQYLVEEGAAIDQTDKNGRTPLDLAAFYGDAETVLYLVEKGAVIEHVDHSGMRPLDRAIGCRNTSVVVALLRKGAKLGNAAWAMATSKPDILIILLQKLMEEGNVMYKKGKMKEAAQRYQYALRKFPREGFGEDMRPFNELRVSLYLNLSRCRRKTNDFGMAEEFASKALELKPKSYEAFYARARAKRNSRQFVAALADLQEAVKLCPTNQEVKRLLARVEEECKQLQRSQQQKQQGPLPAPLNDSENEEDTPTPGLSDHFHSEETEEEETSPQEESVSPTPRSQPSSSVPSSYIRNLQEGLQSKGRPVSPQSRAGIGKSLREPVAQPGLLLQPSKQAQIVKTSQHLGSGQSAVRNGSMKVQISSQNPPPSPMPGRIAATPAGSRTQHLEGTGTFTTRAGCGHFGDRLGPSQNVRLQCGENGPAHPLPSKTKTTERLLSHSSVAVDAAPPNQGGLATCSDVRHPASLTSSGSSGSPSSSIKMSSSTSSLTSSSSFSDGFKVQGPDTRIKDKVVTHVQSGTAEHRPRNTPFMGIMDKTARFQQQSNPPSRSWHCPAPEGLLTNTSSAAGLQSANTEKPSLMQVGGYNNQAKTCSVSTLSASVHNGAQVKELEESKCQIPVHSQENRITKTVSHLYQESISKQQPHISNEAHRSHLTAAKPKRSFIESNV

Compound: CC1Cc2ccccc2N1C(=O)C1CCCN(C1)C(=O)CCl (mixture of isomers) [TRIM25 ligand 11 (diastereomer mixture)]
Assay: probe-labelled cysteine peptide fold change vs DMSO (competition) (log2 fold change); higher = less target engagement (more negative = stronger competition)
Details: THP-1, incubation time: 4 h
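Also: competitive chemoproteomic profiling in live THP-1 cells with an iodoacetamide desthiobiotin (IA-DTB) probe, comparing probe-labelled peptide intensities in compound-treated cells against DMSO-treated controls.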

Row | Target | probe-labelled cysteine peptide fold change (10 µM) | probe-labelled cysteine peptide fold change (50 µM)
1 | TARS2_Q9BW92_322_EQELFFFHELSPGSCFFLPR (UniProt Q9BW92) | 0.347 | 0.22
2 | TARS_P26639_343_IGRDQELYFFHELSPGSCFFLPK (UniProt P26639) | -0.112 | 0.0666
3 | TBRG4_Q969Z0_335_LATDLLSLMPSLTSGEVAHCAK (UniProt Q969Z0) | -0.0541 | 0.0927
4 | TAF2_Q6P1X5_34_LTHQVVCINNINFQR (UniProt Q6P1X5) | -0.151 | 0.18
5 | TAPBPL_Q9BX59_39_AVDVVLDCFLAK (UniProt Q9BX59) | -0.0571 | -0.0405
6 | TCEA1_P23193_294_SADEPMTTFVVCNECGNR (UniProt P23193) | -0.108 | -0.144
7 | TBL1XR1_Q9BZK7_434_LWDVDRGICIHTLTK (UniProt Q9BZK7) | -0.327 | -0.0418
8 | TARS_P26639_261_CGPLIDLCR (UniProt P26639) | 0.193 | -0.0116
9 | TAF2_Q6P1X5_94_INDLEAAFIYNDPTLEVCHSESK (UniProt Q6P1X5) | 0.0196 | -0.111
10 | TBCD_Q9BTW9_420_AWHGGCLALAELGR (UniProt Q9BTW9) | -0.00625 | 0.148
11 | TAPBP_O15533_91_GAPAPHCEMSR (UniProt O15533) | -0.0661 | -0.0587
12 | TBC1D1_Q86TI0_178_KFEVLFCGR (UniProt Q86TI0) | -0.0471 | -0.081
13 | TAOK1_Q7L7X3_798_LDEAQEAECQVLK (UniProt Q7L7X3) | 0.0134 | 0.0982
14 | TAOK3_Q9H2K8_795_LDEAQEAECQALR (UniProt Q9H2K8) | -0.187 | 0.145
15 | TBCB_Q99426_83_LDQEDALLGSYPVDDGCR (UniProt Q99426) | 0.0971 | 0.0789
16 | TARS2_Q9BW92_603_LLGVLAESCGGK (UniProt Q9BW92) | 0.278 | 0.355
17 | TANC1_Q9C0D5_985_LVCLLTK (UniProt Q9C0D5) | 0.0106 | 0.103
18 | TBC1D9B_Q66K14_162_LVNYYSCSYWK (UniProt Q66K14) | 0.119 | 0.0901
19 | SZT2_Q5T011_1152_LAACGLEGPPQEETKPK (UniProt Q5T011) | -0.0486 | -0.226
20 | TANC1_Q9C0D5_1611_LQCGENGPAHPLPSK (UniProt Q9C0D5) | 0.129 | -0.149

Laid out differently: results already given
Row,Target,probe-labelled cysteine peptide fold change (10 µM),probe-labelled cysteine peptide fold change (50 µM)
5,TAPBPL_Q9BX59_39_AVDVVLDCFLAK (UniProt Q9BX59),-0.0571,-0.0405
6,TCEA1_P23193_294_SADEPMTTFVVCNECGNR (UniProt P23193),-0.108,-0.144
